In paper PMC7862700:
The list shows a part of the results, in another mix than the full data. For some assays here: At the low end of the ranking the order means little. Some of the results follow. For some assays here: The exact form of the protein is not confirmed.

Sequences of proteins named here, by UniProt entry; tags and fusion partners are left off. A change or cut given only in a name is not applied to a line headed by its entry.
UniProt P50549: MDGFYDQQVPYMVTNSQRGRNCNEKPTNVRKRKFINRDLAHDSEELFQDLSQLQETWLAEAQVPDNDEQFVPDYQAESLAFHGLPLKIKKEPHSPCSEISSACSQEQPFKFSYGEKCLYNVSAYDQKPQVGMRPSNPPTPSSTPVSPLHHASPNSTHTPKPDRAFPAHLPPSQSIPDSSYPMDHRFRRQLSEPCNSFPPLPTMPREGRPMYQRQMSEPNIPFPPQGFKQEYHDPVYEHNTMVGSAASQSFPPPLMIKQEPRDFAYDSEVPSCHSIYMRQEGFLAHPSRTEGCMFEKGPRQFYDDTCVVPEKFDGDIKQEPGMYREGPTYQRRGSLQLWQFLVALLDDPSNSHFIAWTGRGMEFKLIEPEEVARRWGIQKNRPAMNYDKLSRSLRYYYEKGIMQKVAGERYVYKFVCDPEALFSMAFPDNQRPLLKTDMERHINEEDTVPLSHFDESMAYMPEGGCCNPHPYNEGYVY
UniProt P32519: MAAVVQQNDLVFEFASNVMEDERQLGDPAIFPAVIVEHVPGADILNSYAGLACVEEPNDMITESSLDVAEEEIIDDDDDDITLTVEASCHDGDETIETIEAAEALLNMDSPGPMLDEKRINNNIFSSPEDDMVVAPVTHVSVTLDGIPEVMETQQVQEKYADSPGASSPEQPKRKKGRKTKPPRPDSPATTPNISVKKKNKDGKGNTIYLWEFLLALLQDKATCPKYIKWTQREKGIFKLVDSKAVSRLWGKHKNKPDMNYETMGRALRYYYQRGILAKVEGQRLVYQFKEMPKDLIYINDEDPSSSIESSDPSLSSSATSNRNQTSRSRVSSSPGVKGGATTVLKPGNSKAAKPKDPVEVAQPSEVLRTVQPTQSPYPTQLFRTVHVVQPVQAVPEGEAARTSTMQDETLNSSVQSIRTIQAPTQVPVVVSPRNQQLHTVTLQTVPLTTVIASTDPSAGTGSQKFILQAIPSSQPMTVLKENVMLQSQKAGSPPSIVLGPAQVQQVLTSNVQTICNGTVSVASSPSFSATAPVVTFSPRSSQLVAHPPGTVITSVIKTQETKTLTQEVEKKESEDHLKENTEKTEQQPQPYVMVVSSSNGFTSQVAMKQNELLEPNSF

What was measured:
Assay in all cases: DAPPL (digital affinity profiling via proximity ligation, sequencing)
Details in all cases: 10 mM Tris-HCl pH 7.5, 50 mM NaCl, 1 mM DTT, 4% glycerol, room temperature, 30 min; GST-TFs on glutathione beads, 16-mer random dsDNA library, 0.1% …; high values mean tight binding; double strand, one strand shown; scale: fold enrichment (6-mer frequency, TF over GST control)
[1] = molecular target: T1, ERG (UniProt P11308)
T1 sequence: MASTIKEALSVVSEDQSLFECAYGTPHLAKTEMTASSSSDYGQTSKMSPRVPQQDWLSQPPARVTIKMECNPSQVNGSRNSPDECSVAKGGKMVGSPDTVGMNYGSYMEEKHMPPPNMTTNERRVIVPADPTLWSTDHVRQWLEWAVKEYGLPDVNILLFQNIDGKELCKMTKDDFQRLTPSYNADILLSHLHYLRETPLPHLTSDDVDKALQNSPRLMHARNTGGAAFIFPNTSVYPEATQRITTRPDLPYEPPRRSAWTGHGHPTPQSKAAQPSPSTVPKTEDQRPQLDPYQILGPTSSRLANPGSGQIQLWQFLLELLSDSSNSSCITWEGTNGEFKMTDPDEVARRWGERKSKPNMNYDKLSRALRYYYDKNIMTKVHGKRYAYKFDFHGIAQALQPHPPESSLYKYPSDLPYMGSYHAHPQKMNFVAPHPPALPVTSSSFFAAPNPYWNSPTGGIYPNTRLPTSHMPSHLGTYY

[2] = molecular target: T2, ETV4 (UniProt P43268)
T2 sequence: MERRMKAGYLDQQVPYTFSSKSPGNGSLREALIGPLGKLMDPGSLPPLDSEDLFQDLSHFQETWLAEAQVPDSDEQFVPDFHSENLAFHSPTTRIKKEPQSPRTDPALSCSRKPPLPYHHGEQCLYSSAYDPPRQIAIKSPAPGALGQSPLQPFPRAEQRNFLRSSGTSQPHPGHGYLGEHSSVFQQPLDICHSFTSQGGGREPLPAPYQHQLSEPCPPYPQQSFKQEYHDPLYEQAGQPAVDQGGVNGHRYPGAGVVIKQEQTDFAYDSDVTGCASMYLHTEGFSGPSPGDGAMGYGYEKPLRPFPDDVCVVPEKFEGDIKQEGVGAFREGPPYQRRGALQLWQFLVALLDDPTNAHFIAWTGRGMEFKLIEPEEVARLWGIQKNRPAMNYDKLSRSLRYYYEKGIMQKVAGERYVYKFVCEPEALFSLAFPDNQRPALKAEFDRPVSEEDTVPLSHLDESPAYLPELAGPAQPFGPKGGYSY

[3] = molecular target: ETV1 (UniProt P50549)
[4] = molecular target: ELF1 (UniProt P32519)
[5] = molecular target: T3, ERF (UniProt P50548)
T3 sequence: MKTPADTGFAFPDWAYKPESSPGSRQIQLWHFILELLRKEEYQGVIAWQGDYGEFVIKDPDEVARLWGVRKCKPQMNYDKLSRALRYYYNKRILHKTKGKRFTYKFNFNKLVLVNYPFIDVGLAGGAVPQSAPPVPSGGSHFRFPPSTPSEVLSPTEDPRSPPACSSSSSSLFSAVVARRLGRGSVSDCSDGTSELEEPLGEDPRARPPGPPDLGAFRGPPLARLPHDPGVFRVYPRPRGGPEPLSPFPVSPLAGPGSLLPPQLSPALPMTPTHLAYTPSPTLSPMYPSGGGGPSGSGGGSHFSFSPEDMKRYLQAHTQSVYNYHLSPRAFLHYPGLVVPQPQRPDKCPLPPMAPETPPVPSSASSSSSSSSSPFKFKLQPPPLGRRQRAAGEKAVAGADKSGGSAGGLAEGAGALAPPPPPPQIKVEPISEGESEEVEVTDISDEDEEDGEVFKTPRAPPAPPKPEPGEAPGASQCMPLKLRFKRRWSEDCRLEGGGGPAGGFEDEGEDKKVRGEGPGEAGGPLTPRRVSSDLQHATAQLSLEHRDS

## ATGAAA
[1]
  binding signal: 1.17
[2]
  binding signal: 1.11

## ACATCT
[1]
  binding signal: 1.34
[2]
  binding signal: 1.28

## TTGCTA
[1]
  binding signal: 1.26
[2]
  binding signal: 1.3

## TGCTGT
[1]
  binding signal: 0.991
[2]
  binding signal: 1.03

## CCCATG
[1]
  binding signal: 1.19
[2]
  binding signal: 1.1

## TTAGTT
[1]
  binding signal: 1.24
[2]
  binding signal: 1.33

## CTCTCA
[1]
  binding signal: 1.36
[2]
  binding signal: 1.5

## TCTAGC
[1]
  binding signal: 1.32
[2]
  binding signal: 1.32

## CATCTT
[1]
  binding signal: 1.27
[2]
  binding signal: 1.19

## GTATAT
[1]
  binding signal: 1.09
[2]
  binding signal: 1.16

## GCCTTG
[1]
  binding signal: 1.26
[2]
  binding signal: 1.19

## CGAAAG
[1]
  binding signal: 1.04
[2]
  binding signal: 1.04

## GTCTCA
[1]
  binding signal: 1.36
[2]
  binding signal: 1.36

## ACCGAA
[1]
  binding signal: 0.999
[2]
  binding signal: 1.04

## CATACT
[1]
  binding signal: 1.27
[2]
  binding signal: 1.34

## CGTCTA
[1]
  binding signal: 1.37
[2]
  binding signal: 1.22

## AACGCT
[1]
  binding signal: 1.19
[2]
  binding signal: 1.3

## TGGACC
[1]
  binding signal: 1.04
[2]
  binding signal: 1.1

## TAAGCT
[1]
  binding signal: 1.18
[2]
  binding signal: 1.26

## TTAAAG
[1]
  binding signal: 1.1
[2]
  binding signal: 1.06
[3]
  binding signal: 1.15

## ATGCTT
[1]
  binding signal: 1.32
[2]
  binding signal: 1.45

## ATTAAT
[1]
  binding signal: 1.21
[2]
  binding signal: 1.23

## TTATAC
[1]
  binding signal: 1.35
[2]
  binding signal: 1.42

## AATGTC
[1]
  binding signal: 1.27
[2]
  binding signal: 1.24

## CCCTTT
[1]
  binding signal: 1.45
[2]
  binding signal: 1.42

## CCGGTA
[1]
  binding signal: 1.7
[2]
  binding signal: 1.48

## CGTCCG
[1]
  binding signal: 1.27
[2]
  binding signal: 1.35

## TCTTAG
[1]
  binding signal: 1.15
[2]
  binding signal: 1.25
[3]
  binding signal: 1.25

## TGTACT
[1]
  binding signal: 1.24
[2]
  binding signal: 1.49

## ATTAGC
[1]
  binding signal: 1.15
[2]
  binding signal: 1.18

## CCCTCC
[1]
  binding signal: 1.41
[2]
  binding signal: 1.46

## ATCTAA
[1]
  binding signal: 1.17
[2]
  binding signal: 1.2
[3]
  binding signal: 1.16

## CCACGC
[1]
  binding signal: 1.16
[2]
  binding signal: 1.2

## TGTTCT
[1]
  binding signal: 1.38
[2]
  binding signal: 1.29

## TGGTTA
[1]
  binding signal: 1.13
[2]
  binding signal: 1.03
[3]
  binding signal: 1.01

## TGCAAA
[1]
  binding signal: 1.14
[2]
  binding signal: 1.04

## CTTCGC
[1]
  binding signal: 1.53
[2]
  binding signal: 1.4
[3]
  binding signal: 1.52

## CGACCT
[1]
  binding signal: 1.46
[2]
  binding signal: 1.6

## AAATTA
[1]
  binding signal: 1.28
[2]
  binding signal: 1.22

## TAGTAA
[1]
  binding signal: 0.995
[2]
  binding signal: 0.993

## CCCTAA
[1]
  binding signal: 1.17
[2]
  binding signal: 1.17

## CTTATC
[1]
  binding signal: 1.1
[2]
  binding signal: 1.21

## TATCTA
[1]
  binding signal: 1.18
[2]
  binding signal: 1.2

## TGCTAC
[1]
  binding signal: 1.27
[2]
  binding signal: 1.3

## AACAAA
[1]
  binding signal: 1.18
[2]
  binding signal: 1.14

## TAGGCT
[1]
  binding signal: 1.23
[2]
  binding signal: 1.11

## ACTCCT
[1]
  binding signal: 1.45
[2]
  binding signal: 1.46

## TTATAG
[1]
  binding signal: 1.04
[2]
  binding signal: 1.24

## ACGCCC
[1]
  binding signal: 1.11
[2]
  binding signal: 1.18

## GATTTT
[1]
  binding signal: 1.12
[2]
  binding signal: 1.08
[3]
  binding signal: 1.17

## TGGTAT
[1]
  binding signal: 1.31
[2]
  binding signal: 1.34

## CTGGCC
[3]
  binding signal: 1.15

## TGCTGC
[3]
  binding signal: 1.13

## TACCTC
[1]
  binding signal: 1.19
[4]
  binding signal: 1.25
[2]
  binding signal: 1.25
[5]
  binding signal: 1.32

## AAAGAA
[1]
  binding signal: 1.27
[4]
  binding signal: 1.28
[2]
  binding signal: 1.22

## TGTTAA
[1]
  binding signal: 1.11
[4]
  binding signal: 1.09
[2]
  binding signal: 1.1

## CCATTG
[2]
  binding signal: 1.26
[3]
  binding signal: 1.05
